No constants are given. Whether binding was seen depends on the method and setting. In cells and extracts the contact can be indirect. Some results given as binding are weak or reduced against the parent protein; the word gives no strength.
T1: Flotillin-1/Reggie-2 (mouse (endogenous in striatum)) (UniProt O08917)
T1 sequence: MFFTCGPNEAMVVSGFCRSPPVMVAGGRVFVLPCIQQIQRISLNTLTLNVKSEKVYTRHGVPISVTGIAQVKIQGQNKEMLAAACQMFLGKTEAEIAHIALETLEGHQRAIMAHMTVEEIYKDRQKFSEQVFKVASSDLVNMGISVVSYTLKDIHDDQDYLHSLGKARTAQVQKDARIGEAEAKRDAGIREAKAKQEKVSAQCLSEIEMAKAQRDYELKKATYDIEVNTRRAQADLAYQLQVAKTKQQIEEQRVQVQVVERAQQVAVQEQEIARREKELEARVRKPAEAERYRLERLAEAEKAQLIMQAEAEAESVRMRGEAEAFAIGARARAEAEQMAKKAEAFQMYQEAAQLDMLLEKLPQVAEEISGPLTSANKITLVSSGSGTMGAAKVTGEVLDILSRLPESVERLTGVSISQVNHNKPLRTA

Amino acid sequences for entries named in this document (tags omitted).
UniProt Q61327: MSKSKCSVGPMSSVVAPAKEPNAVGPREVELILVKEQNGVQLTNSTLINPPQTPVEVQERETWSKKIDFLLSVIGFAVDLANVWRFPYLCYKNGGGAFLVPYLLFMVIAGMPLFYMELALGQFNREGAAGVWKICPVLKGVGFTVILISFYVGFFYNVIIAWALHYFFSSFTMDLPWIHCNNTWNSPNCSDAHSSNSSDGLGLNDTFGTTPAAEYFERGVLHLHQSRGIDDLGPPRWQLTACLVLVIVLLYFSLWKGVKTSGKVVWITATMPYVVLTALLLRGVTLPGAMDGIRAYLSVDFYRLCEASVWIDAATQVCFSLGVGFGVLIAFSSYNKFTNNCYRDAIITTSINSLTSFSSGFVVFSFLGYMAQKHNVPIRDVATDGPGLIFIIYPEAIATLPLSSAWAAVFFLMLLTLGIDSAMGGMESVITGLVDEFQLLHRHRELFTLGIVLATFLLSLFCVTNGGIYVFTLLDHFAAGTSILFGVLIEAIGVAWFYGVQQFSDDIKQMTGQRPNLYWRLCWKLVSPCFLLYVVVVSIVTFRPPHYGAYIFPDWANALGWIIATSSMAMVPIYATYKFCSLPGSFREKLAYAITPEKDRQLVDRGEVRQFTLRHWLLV


Experiments:
[1] = target: T1, Flotillin-1/Reggie-2 (mouse (endogenous in striatum)); assay: co-IP
[2] = target: dopamine transporter (mouse (endogenous in striatum)) (UniProt Q61327); assay: co-IP

Row | binding [1] | binding [2] | Binder
1 | binds | binds | Flot2 (protein, UniProt Q60634 1-428) MGNCHTVGPNEALVVSGGCCGSDYKQYVFGGWAWAWWCISDTQRISLEIMTLQPRCEDVETAEGVALTVTGVAQVKIMTEKELLAVACEQFLGKNVQDIKNVVLQTLEGHLRSILGTLTVEQIYQDRDQFAKLVREVAAPDVGRMGIEILSFTIKDVYDKVDYLSSLGKTQTAVVQRDADIGVAEAERDAGIREAECKKEMLDVKFMADTKIADSKRAFELQKSAFSEEVNIKTAEAQLAYELQGAREQQKIRQEEIEIEVVQRKKQIAVEAQEILRTDKELIATVRRPAEAEAHRIQQIAEGEKVKQVLLAQAEAEKIRKIGEAEAAVIEAMGKAEAERMKLKAEAYQKYGDAAKMALVLEALPQIAAKISAPLTKVDEIVVLSGDNSKVTSEVNRLLAELPASVHALTGVDLSKIPLIKNATGAQV
2 | – | binds | Flotillin-1/Reggie-2 (protein, UniProt O08917 1-428) MFFTCGPNEAMVVSGFCRSPPVMVAGGRVFVLPCIQQIQRISLNTLTLNVKSEKVYTRHGVPISVTGIAQVKIQGQNKEMLAAACQMFLGKTEAEIAHIALETLEGHQRAIMAHMTVEEIYKDRQKFSEQVFKVASSDLVNMGISVVSYTLKDIHDDQDYLHSLGKARTAQVQKDARIGEAEAKRDAGIREAKAKQEKVSAQCLSEIEMAKAQRDYELKKATYDIEVNTRRAQADLAYQLQVAKTKQQIEEQRVQVQVVERAQQVAVQEQEIARREKELEARVRKPAEAERYRLERLAEAEKAQLIMQAEAEAESVRMRGEAEAFAIGARARAEAEQMAKKAEAFQMYQEAAQLDMLLEKLPQVAEEISGPLTSANKITLVSSGSGTMGAAKVTGEVLDILSRLPESVERLTGVSISQVNHNKPLRTA

Reference: publication doi:10.1101/755819
